Results reported in the supplement of paper PMC4683952.
Where a name gives a salt, the structure may show the parent alone. The campaign covered roughly 1,200 compounds. About 50 (4%) showed activity. Cut-off read from the data, not from the text of the source: all actives reach 1.3 or more but so do some inactives. This is one part of the list.

Test system: Lgr5 (MarsCy1-Lgr5-EGFP, U2OS)
Assay: cell-surface Lgr5 expression (SCi1 fluorescence, background-subtracted) relative to WT DMSO (fold of DMSO control); higher = more Lgr5 at the plasma membrane, active = hit call of the paper
Settings: U2OS MarsCy1-Lgr5-EGFP stable; treatment time: overnight; 16 µM; library: Johns Hopkins Clinical Compound Library

| SMILES | cell-surface Lgr5 expression |
| --- | --- |
| C[C@@H]1CN([C@H]2CC[C@](C#N)(c3ccc(F)cc3)CC2)CC[C@]1(C(=O)O)c1ccccc1 [Levocabastine] | inactive: 0.953 |
| [Na+].[Na+].[O]=[Cr](=[O])([O-])[O-] [Sodium chromate] | inactive: 0.294 |
| C1CN1c1nc(N2CC2)nc(N2CC2)n1 [Triethylenemelamine] | inactive: 1.39 |
| C=CN1CCCC1=O.II [Povidone iodine] | inactive: 0.672 |
| C=CN1CCCC1=O.II [Povidone iodine (Polyvinylpyrrolidone-iodine complex)] | inactive: 1.24 |
| Cl[C@H]1[C@H](Cl)[C@@H](Cl)[C@@H](Cl)[C@H](Cl)[C@H]1Cl [Lindane (1,2,3,4,5,6-Hexachlorocyclohexane,γ-isomer)] | inactive: 1.03 |
| Oc1ccc(Cl)cc1Cc1cc(Cl)ccc1O [Dichlorophene (2,2 methylene bis 4-chlorophenol)] | inactive: 0.92 |
| CCC1(C)CC(=O)NC(=O)C1 [Bemegride (3-methyl-3-ethylglutarimide)] | inactive: 0.258 |
| C#CC(C)(O)CC (stereo not drawn) [Meparfynol (Methylpentynol, 3-Methyl-1-pentyn-3-ol)] | inactive: 0.883 |
| C[N+]1(C)CCCC(OC(=O)C(O)(c2ccccc2)c2ccccc2)C1 (stereo not drawn) [Mepenzolate bromide] | inactive: 0.979 |
| N[C@@H]1C[C@H]1c1ccccc1.N[C@H]1C[C@@H]1c1ccccc1 [Tranylcypromine HCL (trans-2-phenylcyclopropylamine)] | inactive: 0.565 |
| CCOC(=O)NC(O)C(Cl)(Cl)Cl (stereo not drawn) [Carbocloral (8-ethoxy-5-quinolinesulfonic acid)] | inactive: 0.471 |
| CNC(C)Cc1ccccc1OC (stereo not drawn) [Methoxyphenamine] | inactive: 1.06 |
| C=C1C[C@@H]2[C@H](CC[C@]3(C)C(=O)CC[C@@H]23)[C@@]2(C)C=CC(=O)C=C12 [Exemestane] | inactive: 1.48 |
| CC(=O)[C@H]1CC[C@H]2[C@@H]3CC[C@H]4C[C@H](O)CC[C@]4(C)[C@H]3C(=O)C[C@]12C [Alfaxalone] | inactive: 1.28 |
| CCCCCCCCCCCCCCCC[n+]1ccccc1 [Cetylpyridinium bromide monohydrate] | inactive: 1.23 |
| CCCCCCCCCCCCCCCC[n+]1ccccc1 [Cetylpyridinium (Pyrisept)] | inactive: 1.06 |
| CC(=O)OCC1=C(C(=O)[O-])N2C(=O)[C@@H](NC(=O)CCC[C@@H](N)C(=O)[O-])[C@H]2SC1.[Zn+2] [Cephalosporin C zinc salt] | inactive: 0.712 |
| CN(C)[C@@H]1C(=O)C(C(N)=O)=C(O)[C@@]2(O)C(=O)C3=C(O)c4c(O)cccc4[C@@](C)(O)[C@H]3[C@H](O)[C@@H]12 [Oxytetracycline hemicalcium salt] | inactive: 0.817 |
| O=C(C[S+]([O-])C(c1ccccc1)c1ccccc1)NO (stereo not drawn) [Adrafinil] | inactive: 1.16 |
| Oc1ccccc1-c1ccccc1 [2-Phenylphenol] | inactive: 1.18 |
| CNCC(O)c1ccc(O)cc1 (stereo not drawn) [Oxedrine (Synephrine)] | inactive: 1.35 |
| CN1[C@@H]2CC[C@H]1C[C@@H](OC(=O)C(CO)c1ccccc1)C2 (stereo partly drawn) [Atropine sulfate] | inactive: 1.08 |

| SMILES | cell-surface Lgr5 expression |
| --- | --- |
| OCC(Cl)(Cl)Cl [2,2,2-Trichloroethanol] | inactive: 0.698 |
| CNC(C)(C)Cc1ccccc1 [Mephentermine hemisulfate salt] | inactive: 0.95 |
| CNC(C)(C)Cc1ccccc1 [Mephentermine] | inactive: 1.2 |
| C[C@]12CCC(=O)C(O)=C1CC[C@@H]1[C@@H]2CC[C@]2(C)C(=O)CC[C@@H]12 [Formestane (4-Androsten-4-ol-3,17-dione)] | inactive: 1.18 |
| c1ccc(C2CC2)c(OCC2=NCCN2)c1 [Cirazoline hydrochloride] | inactive: 1.24 |
| CNC1(c2ccccc2Cl)CCCCC1=O.Cc1cccc(C)c1NC1=NCCCS1 (stereo not drawn) [Ketamine/Xylazine] | inactive: 1.1 |
| CC(C)(C)OC(=O)c1ncn2c1[C@@H]1CCCN1C(=O)c1c(Br)cccc1-2 [Bretazenil] | inactive: 1.17 |
| CN(C)C(=O)Oc1cccc([N+](C)(C)C)c1 [Neostigmine methyl sulfate] | inactive: 0.518 |
| CNC(=O)Oc1ccc2c(c1)[C@]1(C)CCN(C)[C@@H]1N2C [Eserine (PHYSOSTIGMINE)] | inactive: 0.976 |
| CCN(CC)CCOC(=O)C(O)(c1ccccc1)c1ccccc1 [Benactyzine HCL] | inactive: 1.22 |
| COc1ccc(C(=O)c2c(C)n(CCN3CCOCC3)c3ccccc23)cc1 [Pravadoline] | inactive: 1.11 |
| C[C@H]1[C@H]2Cc3ccc(O)cc3[C@]1(C)CCN2CC1CC1 [Cyclazocine] | inactive: 1.09 |
| CN1CCc2cc3c(cc2C1O)OCO3 (stereo not drawn) [Hydrastinine] | inactive: 0.22 |
| CN(CC(=O)O)C(=N)NP(=O)(O)O [Phosphocreatine] | inactive: 1.17 |
| CC(=O)Nc1cc([As](=O)(O)O)ccc1O [Acetarsone] | inactive: 1.37 |
| ClC1=C(Cl)C2(Cl)C(CBr)CC1(Cl)C2(Cl)Cl (stereo not drawn) [Bromocyclen] | inactive: 1.24 |
| C[C@@H]1O[C@@H](O[C@@H]2C=C3CC[C@@H]4[C@H](CC[C@]5(C)[C@@H](c6ccc(=O)oc6)CC[C@]45O)[C@@]3(C)CC2)[C@H](O)[C@H](O)[C@H]1O [Proscillaridin A] | inactive: 0.203 |
| FC(F)(F)c1ccc2c(c1)N(CCCN1CCN(CCCl)CC1)c1ccccc1S2 [Fluphenazine N-mustard (SKF-7171A)] | inactive: 0.894 |
| O=[N+]([O-])OCC(CO[N+](=O)[O-])O[N+](=O)[O-] [Nitroglycerine] | inactive: 1.07 |
| COP(=S)(OC)Oc1cc(Cl)c(Br)cc1Cl [Bromofos (Bromophos-methyl)] | inactive: 1.3 |
| NCCCNCCSP(=O)(O)O [Amifostine] | inactive: 1.35 |
| Nc1ccc([As](=O)(O)O)cc1 [p-Arsanilic acid] | inactive: 1.15 |
| CCCCCCCCC(=O)NCc1ccc(O)c(OC)c1 [Nonivamide (N-Vanillylnonanamide)] | inactive: 0.81 |

| SMILES | cell-surface Lgr5 expression |
| --- | --- |
| CCCCCCCCC(=O)NCc1ccc(O)c(OC)c1 [Nonivamide (Pelargonic acid vanillylamide)] | inactive: 0.888 |
| Oc1ccc2[nH]cc(CCCCN3CC=C(c4ccccc4)CC3)c2c1 [Roxindole Mesylate] | inactive: 1.18 |
| CCOC(=O)CC(SP(=S)(OC)OC)C(=O)OCC (stereo not drawn) [Malathion] | inactive: 1.11 |
| CC(NC(C)(C)C)C(=O)c1cccc(Cl)c1 (stereo not drawn) | inactive: 0.727 |
| CN1[C@@H]2C[C@@H](OC(=O)[C@H](CO)c3ccccc3)C[C@H]1[C@@H]1O[C@@H]12 [Scopolamine (-)] | inactive: 0.725 |
| CN1[C@@H]2C[C@@H](OC(=O)[C@H](CO)c3ccccc3)C[C@H]1[C@@H]1O[C@@H]12 [Scopolamine] | inactive: 1.12 |
| CN[C@@H](C)[C@@H](O)c1ccccc1 [Pseudoephedrine HCL (+)] | inactive: 1.33 |
| O=[N+]([O-])C(Br)(CO)CO [Bronopol (2-Bromo-2-nitro-1,3-propanediol)] | inactive: 1.12 |
| [O-][n+]1ccccc1[S-].[O-][n+]1ccccc1[S-].[Zn+2] [Pyrithione zinc (1-Hydroxypyridine-2-Thione Zinc Salt)] | inactive: 0.923 |
| CN1C[C@H](C(=O)N[C@]2(C)O[C@@]3(O)[C@@H]4CCCN4C(=O)[C@H](Cc4ccccc4)N3C2=O)C=C2c3cccc4[nH]cc(c34)C[C@H]21 [Ergotamine D-tartrate] | inactive: 0.554 |
| O=c1n(Cl)c(=O)n(Cl)c(=O)n1Cl [Symclosene (Trichloroisocyanuric acid, 97%)] | inactive: 1 |
| OCCOc1ccccc1 [2-Phenoxyethanol] | inactive: 1.25 |
| CCCC[N+]1(C)[C@@H]2C[C@@H](OC(=O)[C@H](CO)c3ccccc3)C[C@H]1[C@@H]1O[C@@H]12 (stereo partly drawn) [Scopolamine N-butyl bromide (-)] | inactive: 1.15 |
| O=[N+]([O-])[O-].[Ag+] [Silver nitrate] | inactive: 1.16 |
| C[C@]12CCC(=O)C=C1C=C[C@@H]1[C@@H]2CC[C@@]2(C)[C@H]1CC[C@@]2(O)CCC(=O)O [Potassium canrenoate] | inactive: 1.23 |
| CC(C)NC(C)Cc1ccc(I)cc1 (stereo not drawn) [Iofetamine] | inactive: 0.905 |
| O=c1ccc2cc(O[C@@H]3O[C@H](CO)[C@@H](O)[C@H](O)[C@H]3O)c(O)cc2o1 [Esculin monohydrate] | inactive: 0.863 |
| c1ccc2c(c1)Nc1ccccc1S2 [Phenothiazine] | inactive: 1.04 |
| O=c1c2ccccc2[se]n1-c1ccccc1 [Ebselen] | inactive: 0.821 |
| CC(=O)O[C@H]1C[C@@H]2CC[C@@H]3[C@H](CC[C@@]4(C)[C@H]3C[C@H]([N+]3(C)CCCCC3)[C@@H]4OC(C)=O)[C@@]2(C)C[C@@H]1[N+]1(C)CCCCC1 [Pancuronium bromide] | inactive: 1.08 |
| C[C@]12CC[C@H](O)CC1=CC[C@@H]1[C@@H]2CC[C@]2(C)C(=O)CC[C@@H]12 [Prasterone (DHEA, dehydroepiandrosterone)] | active: 1.33 |
| C[C@]12CC[C@H](O)CC1=CC[C@@H]1[C@@H]2CC[C@]2(C)C(=O)CC[C@@H]12 [Prasterone (dehydroisoandrosterone)] | inactive: 1.09 |

Reformatted bar-delimited: part of the list above.
SMILES | cell-surface Lgr5 expression
CNC(C)Cc1ccccc1OC (stereo not drawn) [Methoxyphenamine] | inactive: 1.06
C=C1C[C@@H]2[C@H](CC[C@]3(C)C(=O)CC[C@@H]23)[C@@]2(C)C=CC(=O)C=C12 [Exemestane] | inactive: 1.48
CC(=O)[C@H]1CC[C@H]2[C@@H]3CC[C@H]4C[C@H](O)CC[C@]4(C)[C@H]3C(=O)C[C@]12C [Alfaxalone] | inactive: 1.28
CCCCCCCCCCCCCCCC[n+]1ccccc1 [Cetylpyridinium bromide monohydrate] | inactive: 1.23
CCCCCCCCCCCCCCCC[n+]1ccccc1 [Cetylpyridinium (Pyrisept)] | inactive: 1.06
CC(=O)OCC1=C(C(=O)[O-])N2C(=O)[C@@H](NC(=O)CCC[C@@H](N)C(=O)[O-])[C@H]2SC1.[Zn+2] [Cephalosporin C zinc salt] | inactive: 0.712
CN(C)[C@@H]1C(=O)C(C(N)=O)=C(O)[C@@]2(O)C(=O)C3=C(O)c4c(O)cccc4[C@@](C)(O)[C@H]3[C@H](O)[C@@H]12 [Oxytetracycline hemicalcium salt] | inactive: 0.817
O=C(C[S+]([O-])C(c1ccccc1)c1ccccc1)NO (stereo not drawn) [Adrafinil] | inactive: 1.16
Oc1ccccc1-c1ccccc1 [2-Phenylphenol] | inactive: 1.18
CNCC(O)c1ccc(O)cc1 (stereo not drawn) [Oxedrine (Synephrine)] | inactive: 1.35
CN1[C@@H]2CC[C@H]1C[C@@H](OC(=O)C(CO)c1ccccc1)C2 (stereo partly drawn) [Atropine sulfate] | inactive: 1.08
OCC(Cl)(Cl)Cl [2,2,2-Trichloroethanol] | inactive: 0.698
CNC(C)(C)Cc1ccccc1 [Mephentermine hemisulfate salt] | inactive: 0.95
CNC(C)(C)Cc1ccccc1 [Mephentermine] | inactive: 1.2
C[C@]12CCC(=O)C(O)=C1CC[C@@H]1[C@@H]2CC[C@]2(C)C(=O)CC[C@@H]12 [Formestane (4-Androsten-4-ol-3,17-dione)] | inactive: 1.18
c1ccc(C2CC2)c(OCC2=NCCN2)c1 [Cirazoline hydrochloride] | inactive: 1.24
CNC1(c2ccccc2Cl)CCCCC1=O.Cc1cccc(C)c1NC1=NCCCS1 (stereo not drawn) [Ketamine/Xylazine] | inactive: 1.1
CC(C)(C)OC(=O)c1ncn2c1[C@@H]1CCCN1C(=O)c1c(Br)cccc1-2 [Bretazenil] | inactive: 1.17
